Source: PubChem BioAssay AID504467 (National Center for Advancing Translational Sciences (NCATS), 2011)
In all, about 330,000 compounds went through this assay and about 7,700 (2.3%) were called active. Inconclusive means that the source gave no clear call. Such entries were picked first, then a sample of the others. Calls follow the shape of the dose curve; as a rule, active = well fitted inhibition curve with a large enough effect; inconclusive = small, poorly fitted or top-dose-only effect, or effect the other way; inactive = flat fitted curve, though single readings scatter. A potency beside an inconclusive call is a rough fit, not a confirmed value.

assay: qHTS screen for small molecules that inhibit ELG1-dependent DNA repair in human embryonic kidney (HEK293T) cells expressing luciferase-tagged ELG1; details: HEK293T ELG1-luciferase reporter, luminescence, 16 h, DNA damage induced by 5-fluorouridine; series mostly up to 46.1 µM; also: nearly all actives have a fitted effect of over 55% in size
Procedure, shortened: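 Cells (2,000 per well) received 5-fluorouridine plus test compound or DMSO and were incubated 16 hr at 37 °C, 5% CO2. Luciferase activity was read by luminescence 30 min after ONE-Glo addition; signal suppression marked inhibition of damage-induced ELG1 function.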
Potency is read from the fitted curve at half-maximal effect.

SMILES | Potency
COc1ccc(C2CC(c3ccc(Br)cc3)=NN2C(=O)CSC2=NCCS2)cc1 (configuration not stated) | inconclusive: 20.6 µM [inhibitor, partial curve]
NS(=O)(=O)c1ccc(NC(=O)COc2ccc(S(=O)(=O)N3CCCC3)cc2)cc1 | inactive
COc1ccc(OC)c(S(N)(=O)=O)c1 | inactive
Nc1nnnn1/N=C/c1cccc(Oc2ccccc2)c1 | inconclusive: 23.1 µM [activator, single point]
O=C(COC(=O)c1c(F)cccc1F)c1ccc[nH]1 | inactive
Clc1ccc(Nc2nc(C3CC3)cs2)cc1 | inconclusive: 5.8 µM [activator, partial curve]
CCOc1nc(C)ccc1-c1noc(-c2ccccc2OC)n1 | inconclusive: 29.1 µM [activator, single point]
COCCCN(C(=O)c1ccco1)c1nc(-c2ccc(OC)cc2)cs1 | inconclusive: 23.1 µM [inhibitor, single point]
Cc1cc(C)c2c(=O)[nH]c(SCc3ccc([N+](=O)[O-])cc3)nc2n1 | inactive
O=C(COC(=O)Cc1ccc(Br)cc1)NC1CCCC1 | inactive
COc1ccc(-n2c(C)nc3c(cnn3-c3ccc(Cl)cc3)c2=O)cc1 | active: 18.4 µM
CCN1CCCC1Cn1cnc2c([nH]c3ccc(OC)cc32)c1=O (configuration not stated) | inconclusive: 29.1 µM [activator, single point]
c1csc(-c2nc(N3CCOCC3)c3ccccc3n2)c1 | inconclusive: 29.1 µM [inhibitor, single point]
CCn1nc(NC(=O)Cc2ccc(OC)cc2)c2cc3cc(C)ccc3nc21 | inconclusive: 32.6 µM [activator, partial curve, poor fit]
O=C(Cn1ccc2ccccc2c1=O)NCC(=O)Nc1ccc(F)cc1F | inactive
COc1ccc(Cl)c2sc(N3CCN(C(=O)c4ccco4)CC3)nc12 | inconclusive: 10.3 µM [inhibitor, single point]
Cc1ccc(S(=O)(=O)N2CCOCC2)cc1NC(=O)CNC1CCCC1 | inactive
COc1ccc(-c2nnc(NC(=O)C3CC3)o2)cc1 | inconclusive: 20.6 µM [activator, single point]
O=C(/C=C/c1ccc(-c2ccccc2)o1)c1ccccc1 | inconclusive: 4.11 µM [activator, partial curve]
Cc1c(Cl)c([N+](=O)[O-])nn1Cc1ccc(C(=O)N/N=C\c2cc(Cl)ccc2O)o1 | active: 5.17 µM
COc1ccccc1-n1cnnc1SC(C)C(=O)NCC1CCCO1 (configuration not stated) | inactive
Cc1noc(C(=O)Nc2cccc(Cl)c2)c1Cl | inconclusive: 23.1 µM [activator, partial curve]
Cc1cc(C(=O)COc2ccc(-c3nnco3)cc2)c(C)n1Cc1ccccc1 | inconclusive: 23.1 µM [inhibitor, partial curve]
Cc1ccc(C(=O)OCC(=O)NC2CCCCC2)s1 | inconclusive: 23.1 µM [activator, single point]

SMILES | Potency
COc1ccc(N2C(=O)CC(Sc3nc4ccccc4s3)C2=O)cc1OC (configuration not stated) | inactive
COCCNC(=O)C(C#N)c1nc2ccccc2nc1N1CCCCCC1 (configuration not stated) | inconclusive: 20.6 µM [inhibitor, partial curve]
CC1(c2cccc(Br)c2)NC(=O)N(CC(=O)Nc2cccnc2Cl)C1=O (configuration not stated) | inactive
Cc1ccc(CN2CCN(CC(C)C)C(CCO)C2)s1 (configuration not stated) | inconclusive: 23.1 µM [activator, single point]
COc1ccc(C(=O)NCc2csc(-c3cccs3)n2)cc1 | inactive
COC(=O)C1CCCCN1C(=O)c1ccc2oc(C(C)C)nc2c1 (configuration not stated) | inconclusive: 20.6 µM [activator, partial curve]
Cc1ccc2c(c1)nnn2C1CCN(S(=O)(=O)c2ccc(C(=O)N3CC(C)CC(C)C3)cc2)CC1 (configuration not stated) | active: 20.6 µM
CC(C)CN(C)C(=O)CCc1nnc(Cc2ccc(-c3ccccc3)cc2)o1 | inactive
O=C(Nc1cc(C(F)(F)F)ccc1N1CCCCC1)c1cccc([N+](=O)[O-])c1 | inactive
COc1ccc(C2CC(=O)Nc3cc(C)c(C)cc32)c(OC)c1OC (configuration not stated) | inconclusive: 16.4 µM [inhibitor, partial curve]
CC1CCN(C(=O)CSc2nc(=O)n3ccccc3n2)CC1 | inactive
CC1CN(S(=O)(=O)c2cccc(-c3csc(-c4ccccc4)n3)c2)CC(C)O1 (configuration not stated) | inactive
O=C(O)c1ccc2oc(=O)c(S(=O)(=O)c3ccc(F)cc3)cc2c1 | inactive
Cc1cc(C)nc(NS(=O)(=O)c2ccc(NC(=O)c3ccc4c(c3)OCO4)cc2)n1 | inconclusive: 10 µM [activator, partial curve, poor fit]
CCCS(=O)(=O)c1cn2cccc(N)c2c1S(=O)(=O)CCC | inconclusive: 10.3 µM [activator, single point]
C/C(=N\NC(=O)c1c(Cl)c(C)nn1C)c1ccc(NC(=O)COc2ccc(Cl)cc2C)cc1 | inactive
COc1cc(OC)c2c(-c3cccc(-c4ccc(C(C)=O)cc4)c3)cc(=O)oc2c1 | inactive
COCCNC(=O)c1n[nH]c2ccccc12 | inconclusive: 23.1 µM [activator, partial curve]
CC1OC(OC2C(OC3C(O[C@H]4CC[C@]5(C)C6C=C[C@]78OC[C@@]9(CC[C@@H](C)[C@H](C)C97)[C@H](O)C[C@@]8(C)[C@]6(C)CC[C@H]5C4(C)C)OC(C)C(O)C3O)OC(CO)C(O)C2O)C(O)C(O)C1O (some centres not stated) | inconclusive: 23.1 µM [inhibitor, single point]
CC(C)CNC(=S)NC(=O)c1ccc(Cl)cc1Cl | inconclusive: 20.6 µM [activator, partial curve]
C=CCOc1nc2c(c(=O)n(C)c(=O)n2C)n1Cc1ccccc1 | inconclusive: 18.3 µM [inhibitor, partial curve, poor fit]
Cn1c(CCNC(=O)c2ccco2)nc2cc(NC(=O)c3ccccc3)ccc21 | inconclusive: 13 µM [activator, partial curve]
O=C(c1c[nH]c(C(=O)N2CCN(Cc3ccccc3)CC2)c1)C1CCCCC1 | inconclusive: 14.6 µM [inhibitor, single point]

Pulled by structure from above (three):
SMILES | Potency
COCCNC(=O)c1n[nH]c2ccccc12 | inconclusive: 23.1 µM [activator, partial curve]
COc1ccc(C(=O)NCc2csc(-c3cccs3)n2)cc1 | inactive
Cn1c(CCNC(=O)c2ccco2)nc2cc(NC(=O)c3ccccc3)ccc21 | inconclusive: 13 µM [activator, partial curve]
